In PubChem BioAssay AID587 (National Center for Advancing Translational Sciences (NCATS), 2007):
Out of some 59,000 compounds screened, about 35 (0.06%) were called active. Inconclusive means that the source gave no clear call. Such entries were picked first, then a sample of the others. Cut-off read from the data, not from the text of the source: active = max dye-equivalent concentration above about 10 nM; inconclusive = between about 1.1 nM and that limit; inactive = weaker than that.

Experiment: qHTS Assay for Spectroscopic Profiling in Texas Red Spectral Region
Conditions: Compound fluorescence, Texas Red channel, 547/618 nm; active compounds read high
How it was run: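 qHTS profiling of intrinsic compound fluorescence; 100 mM Tris pH 8.0; 15 min RT; ex 547 / em 618 nm; response expressed as Texas Red dye-equivalent concentration from six-point plate standard.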

| Structure (SMILES) | max dye-equivalent concentration |
| --- | --- |
| N[C@H](Cc1cc(I)c(Oc2cc(I)c(O)c(I)c2)c(I)c1)C(=O)O | inconclusive: 1.2 nM |
| COc1ccccc1NC(=O)C1=C(C)Nc2nc(CCCO)nn2C1c1cccnc1 (centres undefined) | inconclusive: 1.2 nM |
| CC(=O)c1c(C)[nH]c(C(=O)OCC(=O)Nc2cc(C(F)(F)F)ccc2N2CCOCC2)c1C | inconclusive: 1.7 nM |
| CC1=C(CC[C@H](C)CO)O[C@@H]2C[C@@H]3[C@H]4CC[C@H]5C[C@@H](O)CC[C@]5(C)[C@@H]4CC(=O)[C@@]3(C)[C@@H]12 | inconclusive: 1.1 nM |
| CCn1c(COc2ccccc2C(N)=O)nc2ccccc21 | inconclusive: 1.3 nM |
| O=C(C1CCCN1C(=O)c1cccs1)N1CCc2ccccc21 (centres undefined) | inconclusive: 2.6 nM |
| O=C(OCn1nnc2ccccc2c1=O)C1CCCCC1 | inconclusive: 2.5 nM |
| O=C(C1CCN(S(=O)(=O)c2ccc(-n3cnnn3)cc2)CC1)N1CCN(c2ccccc2)CC1 | inconclusive: 1.4 nM |
| Cc1noc(C)c1-c1nccc(N(C)C)n1 | inactive |
| O=C(C1CC(=O)N(C2CCCC2)C1)N1CCC(Cc2ccccc2)CC1 (centres undefined) | inconclusive: 1.7 nM |
| CCOc1ccc(-c2nnc(SCC(=O)N(CC)CC)n2N)cc1 | inconclusive: 1.2 nM |
| CN(C)S(=O)(=O)c1nc(Cl)c2[nH]cnc2n1 | inactive |
| O=C(CSc1nn(-c2ccc(F)cc2)c(=S)s1)N1CCN(C(=O)c2ccco2)CC1 | inconclusive: 1.8 nM |
| COCCCNC(=O)c1ccccc1SC | inconclusive: 1.1 nM |
| CCOCCCn1c(=N)c(C(=O)Nc2cc(C)on2)cc2c(=O)n3ccccc3nc21 | inconclusive: 1.3 nM |
| O=C1CC(c2ccco2)CC(O)=C1C=NCC1NCCc2ccccc21 (centres undefined) | inconclusive: 2.1 nM |
| COc1ccc(CCNC(=O)c2cc3c(=O)n4cccc(C)c4nc3n(Cc3ccncc3)c2=N)cc1 | inconclusive: 1.2 nM |
| O=C(COC(=O)Cc1ccc(S(=O)(=O)N2CCCCC2)s1)Nc1ccc2c(c1)OCO2 | inconclusive: 2.1 nM |
| CCOC(=O)N1CCN(C(=O)CCCn2nc(C)c3sc4ccccc4c3c2=O)CC1 | inconclusive: 1.7 nM |
| Cc1cccc(C)c1Nc1nnc(SCC(=O)NCc2ccco2)s1 | inactive |
| COc1ccc(-c2cc3c(=O)n(CC(=O)NC4CCN(Cc5ccccc5)CC4)ncn3n2)cc1 | inconclusive: 1.3 nM |

Shown as labelled records: 4 of the compounds above.
COc1ccccc1NC(=O)C1=C(C)Nc2nc(CCCO)nn2C1c1cccnc1 (centres undefined)
  max dye-equivalent concentration: inconclusive: 1.2 nM
CC1=C(CC[C@H](C)CO)O[C@@H]2C[C@@H]3[C@H]4CC[C@H]5C[C@@H](O)CC[C@]5(C)[C@@H]4CC(=O)[C@@]3(C)[C@@H]12
  max dye-equivalent concentration: inconclusive: 1.1 nM
CCn1c(COc2ccccc2C(N)=O)nc2ccccc21
  max dye-equivalent concentration: inconclusive: 1.3 nM
O=C(C1CCN(S(=O)(=O)c2ccc(-n3cnnn3)cc2)CC1)N1CCN(c2ccccc2)CC1
  max dye-equivalent concentration: inconclusive: 1.4 nM

Later entries:

| Structure (SMILES) | max dye-equivalent concentration |
| --- | --- |
| COc1cc2c(cc1NC(=O)c1ccc3c(c1)OCO3)oc1ccccc12 | inconclusive: 1.2 nM |
| Cc1nc(Nc2nc(=O)c3ccccc3n2C)nc2c(C)cccc12 | inconclusive: 1.2 nM |
| COc1ccc(CCNC(=O)c2c(O)c3cccc4c3n(c2=O)CC4)cc1 | inconclusive: 1.5 nM |
| O=C(CN(Cc1ccc2c(c1)OCO2)C(=O)CNS(=O)(=O)c1ccccc1)NCC1CCCO1 (centres undefined) | inconclusive: 1.6 nM |
| Cc1n[nH]c(=O)[nH]c1=O | inconclusive: 2 nM |
| CN(C)c1ncc2ncc(=O)n(Cc3cccs3)c2n1 | inactive |
| CC(C)(NO)/C(=N/O)c1cccs1 | inactive |
| CC(C)(C)OC(=O)NCCc1nnc(SCC(=O)Nc2cccc(Cl)c2)o1 | inconclusive: 1.5 nM |
| CCOC(=O)C1CCN(c2cc(=O)n(-c3ccccc3Cl)c(=O)[nH]2)CC1 | inconclusive: 1.1 nM |
| CCN1CCCC1CNC(=O)Cn1cccc1C(=O)c1ccccc1C (centres undefined) | inconclusive: 3.4 nM |
| O=C(CNS(=O)(=O)c1cccs1)N1CCc2ccccc2C1 | inconclusive: 1.1 nM |
| CCCOc1ccc(-c2nnn(CC(=O)OCC)n2)cc1 | inconclusive: 1.1 nM |
| O=c1c2c3c(sc2nc2sc(CN4CCOCC4)cn12)CCCC3 | inconclusive: 1.4 nM |
| O=C(c1csnn1)N1CCC2(CCN(Cc3ccccc3)CC2)CC1 | inactive |
| CCCCS(=O)(=O)Nc1ccc(C(=O)NCC2CCCO2)cc1 (centres undefined) | inconclusive: 2.5 nM |
| c1coc(-c2nnc(SCc3cn4ccccc4n3)o2)c1 | inconclusive: 2 nM |
| Cc1cc(-c2ccco2)c(C#N)c2nc3ccccc3n12 | inactive |
| COc1ccc(CN(C(=O)c2ccco2)c2ccc(C)cc2)cc1OC | inconclusive: 1.1 nM |
| C=CCn1c(O)c(C(CC)=Nc2ccccc2NC(=O)CC)c(=O)[nH]c1=O | inconclusive: 1.9 nM |
| C=CCNS(=O)(=O)c1ccc(OCC(=O)OCC)cc1 | inconclusive: 2.1 nM |
| CC(=O)[C@@H]1[C@@H]2C(=O)N(c3ccc(F)c(Cl)c3)C(=O)[C@@H]2C2c3ccccc3C=CN21 (some centres undefined) | inconclusive: 3.1 nM |

| Structure (SMILES) | max dye-equivalent concentration |
| --- | --- |
| COc1ccc(N(CC(=O)NC2CCCC2)C(=O)CCC(=O)Nc2cc(C)on2)c(OC)c1 | inconclusive: 2.1 nM |
| C[C@@H](CSC(=N)N)C(N)=O | inconclusive: 1.3 nM |
| Cc1ccc(C)c(NS(=O)(=O)c2cc(Br)cnc2N)c1 | inconclusive: 1.8 nM |
| O=C(CNS(=O)(=O)c1ccc(C(=O)N2CCCCC2)cc1)N1CCCCC1 | inconclusive: 2.1 nM |
| Cc1cc(NC(=O)COc2ccccc2)n(-c2ccccc2)n1 | inconclusive: 1.8 nM |
| CCOC(=O)C1=C(C)NC(C)=C(C(=O)OCC)C1C(=O)OC1CCOC1=O (centres undefined) | inconclusive: 1.1 nM |
| CCOC(=O)N1CCN(S(=O)(=O)c2ccc3[nH]cc(C(=O)O)c(=O)c3c2)CC1 | inconclusive: 1.8 nM |
| CSCCC(NC(=O)c1cc(C(C)(C)C)oc1C)C(=O)O (centres undefined) | inconclusive: 1.5 nM |
| C[C@@H]1C(=O)N(C)C(=O)c2nc[nH]c21 | inconclusive: 1.3 nM |
| O=C(O)C1CCCN1S(=O)(=O)c1ccc(Br)s1 (centres undefined) (tested in a mixture with another compound) | inconclusive: 1.4 nM |
| CN1CCN(c2nc(N3CCN(CCO)CC3)nc3ccccc23)CC1 | inconclusive: 1.4 nM |
| C=CCOC(=O)C1=C(C)OC(N)=C(C#N)C1c1c(C)nn(-c2ccccc2)c1Cl (centres undefined) | inconclusive: 1.2 nM |
| CC(=O)Nc1ccccc1OCC(=O)c1ccc2c(c1)OCO2 | inconclusive: 2 nM |
| O=C(CN(c1ccc2c(c1)OCCO2)S(=O)(=O)c1ccccc1)Nc1ccc2c(c1)OCO2 | inactive |
| COC(=O)COc1ccc(NC(=O)C2CCCO2)cc1 (centres undefined) | inconclusive: 1.3 nM |
| COc1ccc(NC(=O)N2CCC3(CC2)CCN(C(=O)c2cnccn2)CC3)cc1 | inactive |
| O=C(Nc1ccccc1)Nc1ccccn1 | inconclusive: 1.7 nM |
| Cc1ccc2cc(CN(CCN3CCCC3)C(=O)Nc3ccccc3)c(=O)[nH]c2c1C | inconclusive: 1.7 nM |
| Cc1ccc(C(C(=O)NC2CCCCC2)N(C(=O)c2csnn2)C2CC2)o1 (centres undefined) | inconclusive: 1.2 nM |
| CCOC(=O)c1ccc(NC(=O)CSc2nccn2C)cc1 | inconclusive: 1.5 nM |
| Cc1ccc2c(c1)c(C)c(C)n2CC(O)CN1CCOCC1 (centres undefined) | active: 64 nM |

| Structure (SMILES) | max dye-equivalent concentration |
| --- | --- |
| CC(C)(C)C(=O)NC1CCN(C(=O)N2CCCC2)CC1 | inconclusive: 1.5 nM |
| CCn1c(SCC(=O)C(C)(C)C)nnc1-c1ccccc1OC | inconclusive: 1.9 nM |
| COC(=O)c1ccc(C)c(NC(=O)c2c(-c3ccccc3)noc2C)c1 | inconclusive: 1.8 nM |
| O=c1c2cnn(-c3ccc(F)cc3)c2ncn1Cc1ccccn1 | inconclusive: 1.8 nM |
| Clc1ccccc1OCc1nc(-c2ccccn2)no1 | inconclusive: 1.1 nM |
| COc1ccc(OC)c(NC(=O)c2cc(-c3ccc(C)cc3O)n[nH]2)c1 | inconclusive: 1.2 nM |
| COc1ccc(C2C(C(=O)c3ccco3)=C(O)C(=O)N2CCc2ccccc2)cc1OC (centres undefined) | inconclusive: 2.3 nM |
| C=CCn1c(N)c(S(=O)(=O)c2cccs2)c2nc3ccccc3nc21 | inconclusive: 1.9 nM |
| O=C(Nc1cccc(NC(=O)N2CCN(c3ccccc3)CC2)c1)N1CCN(c2ccccc2)CC1 | inconclusive: 1.2 nM |
| Cc1[nH]nc2c1-c1nc3ccccc3nc1C(C)(C)C2 | inconclusive: 1.2 nM |
| Cc1ccc(C2/C(=C(\O)c3c(C)nc4ccccn34)C(=O)C(=O)N2CCCN2CCOCC2)o1 (centres undefined) | inconclusive: 1.3 nM |
| O=C(Nc1nc(-c2cccs2)cs1)c1cccc(S(=O)(=O)N2CCCCC2)c1 | inconclusive: 1.2 nM |
| CCOC(=O)N1CCC(NS(=O)(=O)c2cc3c(cc2C)NC(=O)CO3)CC1 | inconclusive: 1.1 nM |
| CN1CCN(S(=O)(=O)c2ccc(NC(=O)C3CCCCC3)cc2)CC1 | inconclusive: 1.4 nM |
| CCOC(=O)Nc1ccc2c(CN3CCN(S(=O)(=O)c4ccccc4)CC3)cc(=O)oc2c1 | inconclusive: 1.1 nM |
| CCCc1[nH]nc2c1C(c1ccc(OC(=O)N3CCOCC3)cc1)C(C#N)=C(N)O2 (centres undefined) | inconclusive: 1.3 nM |
| CC12CC(NC(=O)N1c1cccc(C(=O)Nc3ncn[nH]3)c1)c1ccccc1O2 (centres undefined) | inconclusive: 2.1 nM |
| O=C(NCCOc1ccccc1)c1ccc2c(c1)OCO2 | inconclusive: 1.3 nM |
| Cc1csc(NC(=O)c2c(O)c3c(n(CC(C)C)c2=O)CCCC3)n1 | inconclusive: 1.2 nM |
| CCc1ccc2[nH]cc(C(=O)OCCOC)c(=O)c2c1 | inconclusive: 1.1 nM |
| COc1ccc2[nH]cc(CCN=C3SCC(=O)N3C)c2c1 | inconclusive: 1.3 nM |
